Experimental data: PubChem BioAssay AID1224828 (NIAID, 2016)

Aim: 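Find genes required for NF-kappaB p65 moving into the nucleus after LPS in mouse macrophages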 (primary screen)
Cell system: mouse RAW264.7 G9 macrophage reporter cells (GFP-p65, Tnf promoter-mCherry)
Reagents: siRNA pool against mouse genes, 100 nM
Time to read-out: 2 days siRNA transfection, then 40 min LPS before fixation
Challenge: LPS (Salmonella minnesota R595) at 10 ng/ml
Measurement: 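Microscopy ratio of nuclear to perinuclear-ring GFP-p65 signal, scaled to the plate median; gene score is the average of two replicate robust z-scores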
Direction: p65 translocation robust z-score: higher = more nuclear NF-kappaB p65 after LPS than the plate median; nuclear/cytoplasmic p65 ratio: higher = more nuclear NF-kappaB p65
Hit rule: 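Called active when z exceeds 3.3 or falls under -1.56 (median of Tlr4 controls), giving activity score of at least 50; no calls for control wells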
Calls: active = hit (p65 shift raised or lowered); inactive = no clear change
In all, the deposit lists about 17,000 reagents; this is a part drawn at random. Of all reagents, 762 (4.5%) were called active. 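Active calls include both raised and lowered p65 entry, mostly lowered; wells with fewer than 50 cells lack a z-score.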 The raw values are shown without normalisation. A number with no mark means an inactive call.

| gene knocked down | p65 translocation robust z-score | nuclear/cytoplasmic p65 ratio, rep 1 | nuclear/cytoplasmic p65 ratio, rep 2 | low cell count flag |
| --- | --- | --- | --- | --- |
| Myh8 | -0.89 | 1.18 | 1.13 | enough cells to score |
| Cdc34 | -0.13 | 1.43 | 1.38 | enough cells to score |
| Rgma | -0.47 | 1.33 | 1.19 | enough cells to score |
| Ly6m | -0.91 | 1.19 | 1.25 | enough cells to score |
| Mat2b | -0.08 | 1.71 | 1.53 | enough cells to score |
| Wdr86 | 0.32 | 1.38 | 1.56 | enough cells to score |
| Nol7 | 0.4 | 1.89 | 1.49 | enough cells to score |
| Vsig4 | -1.12 | 1.31 | 1.77 | enough cells to score |
| Clec2i | -0.33 | 1.48 | 1.27 | enough cells to score |
| Maoa | -0.09 | 1.41 | 1.35 | enough cells to score |
| Kif22 | -1.66 (active) | 1.26 | 1.16 | enough cells to score |
| Or8k32 | 0.33 | 1.71 | 1.63 | enough cells to score |
| Csrnp1 | 0.09 | 1.68 | 1.58 | enough cells to score |
| Dema1 | -1.09 | 1.25 | 1.27 | enough cells to score |
| Gpr174 | -0.91 | 1.37 | 1.57 | enough cells to score |
| Irf1 | 0.55 | 1.55 | 1.45 | enough cells to score |
| Cacng8 | 0.09 | 1.65 | 1.76 | enough cells to score |
| Poglut3 | -0.41 | 1.2 | 1.25 | enough cells to score |
| Scamp2 | 0.22 | 1.46 | 1.23 | enough cells to score |
| Pcdhgb4 | 0.42 | 1.56 | 1.24 | enough cells to score |
| Ggnbp2 | -0.12 | 1.2 | 1.23 | enough cells to score |
| Teddm1a | 0.28 | 1.7 | 1.44 | enough cells to score |
| Ost4 | – | 1.65 | 1.31 | fewer than 50 cells per well; well left out of scoring |
| Insig2 | 1.37 | 1.64 | 1.58 | enough cells to score |
